{
  "source": "ChEMBL document CHEMBL3751812",
  "about": "“Novel skeleton compound Allomyrinanoid A and two purine alkaloids from the adult of Allomyrina dichotoma L” (2016)",
  "key": {"Escherichia coli [1]": {"tested_on": "Escherichia coli", "assay": "Antibacterial activity against Escherichia coli assessed as growth inhibition at 10 mg/ml by drug sensitive assay", "format": "functional"}, "Escherichia coli [2]": {"tested_on": "Escherichia coli", "assay": "Antibacterial activity against Escherichia coli assessed as growth inhibition at 1 mg/ml by drug sensitive assay", "format": "functional, organism-based"}, "Pseudomonas aeruginosa [3]": {"tested_on": "Pseudomonas aeruginosa", "assay": "Antibacterial activity against Pseudomonas aeruginosa assessed as growth inhibition at 1 mg/ml by drug sensitive assay", "format": "functional, organism-based"}, "Pseudomonas aeruginosa [4]": {"tested_on": "Pseudomonas aeruginosa", "assay": "Antibacterial activity against Pseudomonas aeruginosa assessed as growth inhibition at 10 mg/ml by drug sensitive assay", "format": "functional, organism-based"}},
  "data": [
    {"sequence": "GENTAMICIN", "values": [
      {"measurement": "inhibition zone (IZ)", "setting": "Escherichia coli [1]", "result": 12, "unit": "mm"},
      {"measurement": "inhibition zone (IZ)", "setting": "Escherichia coli [2]", "result": 9, "unit": "mm"},
      {"measurement": "inhibition zone (IZ)", "setting": "Pseudomonas aeruginosa [3]", "result": 8, "unit": "mm"},
      {"measurement": "inhibition zone (IZ)", "setting": "Pseudomonas aeruginosa [4]", "result": 12, "unit": "mm"}
    ]}
  ]
}
